Results deposited as PubChem BioAssay AID720505 (Drosophila RNAi Screening Center, 2013)
Aim: 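Knock-downs that reduce calcium influx once internal stores are emptied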 (primary screen). Cell system: Drosophila S2R+ cells. Knock-down reagent: long dsRNA against Drosophila genes. Challenge: thapsigargin (2 µM) in calcium-free buffer to empty internal stores, then 2 mM calcium added back. Read-out: 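Stores emptied by 2 µM thapsigargin without calcium, then 2 mM calcium re-added; fluo-4 fluorescence followed by FLIPR in 384-well plates, per-well averaged endpoint, raw; two screen passes, some wells retested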. Scale: calcium signal and retest calcium signal: higher = more calcium entry after store depletion. Active means: 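Knock-downs counted as hits when calcium entry dropped relative to STIM1 positive and Rho1 negative controls present on each plate; roughly 1500 genes called, with reductions of differing size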. Calls: active = called as lowering calcium entry; inactive = not called.
The deposit covers about 20,000 reagents; this is an unselected part of those with a known target gene and a result. In the full data, about 2,100 (10%) were called active. 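Raw plate signals without normalisation; calls rest on control-based scores that were not deposited; replicate 2 separates called from uncalled poorly.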 Not given: the amount of reagent, the time to read-out.

predicted target	PubChem SID	calcium signal, replicate 1	calcium signal, replicate 2	retest calcium signal, replicate 1	retest calcium signal, replicate 2	Call
CG3588	SID104198265	96.3	123			inactive
S6kII	SID104200437	79.1	166			active
DNaseII	SID104196102	151	250			inactive
Mdh2	SID104196153	196	168			inactive
ssp7	SID104198670					active
GstE14	SID104186673	110	156			inactive
Muc96D	SID104193501	7158	173			inactive
Muc96D	SID104201311	159	95.1			inactive
Muc96D	SID104202570	122	155			inactive
zda	SID104186728	77.9	73.8			active
CG10298	SID104192314	113	144			inactive
CG6329	SID104186768	211	190			inactive
CG5225	SID104195534	113	297			inactive
CG17059	SID104186446	121	148			inactive
CG17104	SID104182365	77	95.8			inactive
CG32713	SID104202130	145	171			inactive
CG7488	SID104196042	85.3	95.9			inactive
CG43106	SID104184071	83.4	158			inactive
lncRNA:CR43409	SID104180956	99.8	95.1			inactive
CG10343	SID104181833	59.9	83.2			active
RpL38	SID104187610	46.5	90.4			active
CG30345	SID104184936	81.7	95.6			inactive
CG42784	SID104182326	74	111			inactive
CG42784	SID104182327	128	106			inactive
CG42784	SID104201792	120	154			inactive
CG42784	SID104202163	72.5	128			inactive
CG42784	SID104202357	150	145			inactive
CG34330	SID104199835	77.3	92.1			active
CG12121	SID104197608	79	97			inactive
Tsp33B	SID104182210	205	170			inactive
wtrw	SID104194033	72.8	92.5			active
wtrw	SID104195070	98.5	180	5602	164	inactive
Ir75c	SID104189982	127	196			inactive

Records above whose target name starts with S or s (2):
predicted target	PubChem SID	calcium signal, replicate 1	calcium signal, replicate 2	retest calcium signal, replicate 1	retest calcium signal, replicate 2	Call
S6kII	SID104200437	79.1	166			active
ssp7	SID104198670					active

Further results follow.
predicted target	PubChem SID	calcium signal, replicate 1	calcium signal, replicate 2	retest calcium signal, replicate 1	retest calcium signal, replicate 2	Call
RpL36A	SID104182847	141	201			inactive
Acbp5	SID104190340	97.3	87.5			inactive
CG13216	SID104186130	83.9	82.4			inactive
CG4465	SID104195376	174	143			inactive
RnrS	SID104187325	148	126			inactive
CG31249	SID104196040	70.4	140			active
CG7409	SID104190634	84.3	74.9			inactive
Sou	SID104184148	196	98.5			inactive
CG33640	SID104181116	261	93.3			inactive
dati	SID104196920	143	98.7			inactive
dati	SID104196932	78.7	160			inactive
dati	SID104196945	95.3	122			inactive
CG34166	SID104182274	127	137	120	92.5	inactive
Mob3	SID104182583	131	147			inactive
CG14185	SID104189976	105	80.3			inactive
flfl	SID104196266	72.3	98.2			active
Prp8	SID104187085	104	122			inactive
Pkg21D	SID104180564	164	224			inactive
CG4467	SID104195377	199	242			inactive
mtt	SID104184898	82.2	102			inactive
mtt	SID104184899	108	114			inactive
mtt	SID104186545	113	158			inactive
mtt	SID104187027	124	142			inactive
CG1572	SID104199478	114	98			inactive
GLaz	SID104187223	83	144			inactive
GstD4	SID104196477	107	105			inactive
Nprl2	SID104199945	112	118			inactive
CG8272	SID104186926	140	135			inactive
CG3955	SID104186651	108	86.4			inactive
GAPcenA	SID104190563	83.3	45.5			inactive
CG14380	SID104194632	87.8	147			inactive
by	SID104196274	133	95.9			inactive
mask	SID104195162	167	199			active
mask	SID104195797	146	153			inactive
mask	SID104195810	143	262			inactive
bt	SID104196921	131	109			inactive
bt	SID104196963	122	114			inactive
rn	SID104192292	85.2	116			inactive
rn	SID104192335	85.9	166			inactive
rn	SID104192336	99.1	162			inactive
rn	SID104192338	85	107			inactive
rn	SID104201807	133	214			inactive
Sox100B	SID104194882	82.5	148			active
Sox100B	SID104196658	181	122			inactive
trpl	SID104186520	134	210			inactive
trpl	SID104186521	63.3	120	163	65	inactive
CG17109	SID104194964	221	188			inactive
AstC-R1	SID104190591	96.3	199			inactive
CG11986	SID104194253	150	103			inactive
CG4074	SID104191544	100	176			inactive
